Measured values published in PMC4997860, “The Heterodimeric ABC Transporter EfrCD Mediates Multidrug Efflux in Enterococcus faecalis” (Antimicrobial Agents and Chemotherapy, 2016).

Protein sequences, listed by entry. Tags and fused reporters are not part of them. Lines headed by an entry give the natural chain unless they say otherwise; changes in a name come on top.
UniProt Q837A2: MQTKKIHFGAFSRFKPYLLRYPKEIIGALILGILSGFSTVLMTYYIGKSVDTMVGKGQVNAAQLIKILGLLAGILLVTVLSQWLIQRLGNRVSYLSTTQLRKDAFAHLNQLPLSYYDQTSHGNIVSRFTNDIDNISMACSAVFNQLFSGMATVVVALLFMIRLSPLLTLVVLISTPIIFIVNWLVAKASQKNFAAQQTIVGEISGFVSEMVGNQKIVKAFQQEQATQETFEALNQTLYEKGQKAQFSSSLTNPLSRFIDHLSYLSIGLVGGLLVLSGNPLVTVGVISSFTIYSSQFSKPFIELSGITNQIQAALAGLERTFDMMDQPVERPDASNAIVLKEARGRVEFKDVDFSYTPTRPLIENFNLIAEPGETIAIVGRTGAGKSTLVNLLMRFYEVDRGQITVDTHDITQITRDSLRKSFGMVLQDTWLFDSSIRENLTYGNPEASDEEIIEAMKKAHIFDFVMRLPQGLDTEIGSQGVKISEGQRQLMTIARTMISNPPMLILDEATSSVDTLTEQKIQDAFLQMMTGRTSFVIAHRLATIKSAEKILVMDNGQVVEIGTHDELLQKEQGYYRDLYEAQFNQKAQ
UniProt Q82ZX8: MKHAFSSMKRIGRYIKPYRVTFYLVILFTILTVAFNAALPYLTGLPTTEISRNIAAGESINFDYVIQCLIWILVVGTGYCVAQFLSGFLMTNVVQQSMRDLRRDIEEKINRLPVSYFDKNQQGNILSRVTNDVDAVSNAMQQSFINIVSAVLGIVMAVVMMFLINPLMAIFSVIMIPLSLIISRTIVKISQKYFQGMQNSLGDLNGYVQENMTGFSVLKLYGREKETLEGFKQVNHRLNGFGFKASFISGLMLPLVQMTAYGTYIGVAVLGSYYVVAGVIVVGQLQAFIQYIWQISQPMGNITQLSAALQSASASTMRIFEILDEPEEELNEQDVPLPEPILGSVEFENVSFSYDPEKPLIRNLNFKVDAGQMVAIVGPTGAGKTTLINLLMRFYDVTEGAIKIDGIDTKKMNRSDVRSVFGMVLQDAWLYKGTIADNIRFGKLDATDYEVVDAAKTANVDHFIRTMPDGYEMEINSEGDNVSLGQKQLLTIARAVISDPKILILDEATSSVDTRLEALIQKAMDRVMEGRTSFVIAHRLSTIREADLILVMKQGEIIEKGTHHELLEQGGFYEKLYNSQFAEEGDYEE

Legend:
[1] = biological target: EF0942, first half-transporter of the heterodimeric ABC transporter EF0942-EF0941 (Enterococcus faecalis V583) (UniProt Q837A1); assay: pull-down; co-purification: both half-transporters co-expressed in L. lactis, membranes solubilised with 1% β-DDM, Ni-NTA via the deca-His tag on the N terminus of the first chain, eluted with 200 mM imidazole pH 7.5, 200 mM NaCl, 10% glycerol, 0.03% β-DDM; SDS-PAGE (EfrC and EfrD bands confirmed by MALDI-TOF)
[2] = biological target: EfrA (EF2920), first half-transporter of the heterodimeric ABC transporter EfrAB (Enterococcus faecalis V583) (UniProt Q82ZX7); assay: as above

| Substance | binding [1] | binding [2] |
| --- | --- | --- |
| EF0941, second half-transporter of the heterodimeric ABC transporter EF0942-EF0941 (from UniProt Q837A2) | binds | – |
| EfrB (EF2919), second half-transporter of the heterodimeric ABC transporter EfrAB (from UniProt Q82ZX8) | – | binds |

These are yes or no findings as the source states them, for the method shown. In cells and extracts the contact can be indirect. A result given as binding can be weak or reduced; the word gives no strength.
